# The list shows only some results of the screen, not a fair sample: it gathers tests that were run many times, whatever their T/C, doses with no T/C, and many T/C values between a quarter and a half above the control. Other doses and runs of a compound stand elsewhere. T/C: endpoint of the treated group in % of that of the vehicle group. Some entries give survivors of the animals treated and no T/C: the source holds a T/C of zero for them, seemingly a mark for toxic or unscored doses. Some doses without a T/C left all or most animals alive at the check, yet need not have been tolerated: survival well below the control is almost never listed, so the zero probably covers shortened survival too. Counts of survivors are from the toxicity check (mostly the fifth day) where no day follows; animals may have died later. Schedules are NCI's codes, taken here to give the interval after Q, in days (D) or hours (H), and the number of doses after X. Some doses were run more than once; the values are given in rising order. For survival time, the PubChem record calls one and a half times the control and up active, and a quarter to a half above the control has no call in these data; cut-offs in other NCI protocols can differ. Some T/C values carry the count of animals alive at the toxicity check (mostly the fifth day); where none is given, no animal had died by that day.
# Test system: CD2F1 mice, L1210 leukemia ip, survival T/C
# Test: NCI In Vivo Anticancer Drug Screen. Data for tumor model L1210 Leukemia (intraperitoneal) in CD2F1 (CDF1) mice
# Details: higher T/C = longer survival
# In short: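 Transplantable tumor in mice; compound-treated vs vehicle-treated groups. Read-out = treated/control ratio of the measured endpoint.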
# [1] = T/C endpoint: mean survival time, dose: 200.0 mg/kg/injection, schedule: Q01DX009 (ip), vehicle: saline with Tween-80
# [2] = T/C endpoint: mean survival time, dose: 25.0 mg/kg/injection, schedule: Q04DX003 (ip), vehicle: saline with Tween-80
# [3] = T/C endpoint: mean survival time, dose: 50.0 mg/kg/injection, schedule: Q04DX003 (ip), vehicle: saline with Tween-80
# [4] = T/C endpoint: mean survival time, dose: 100.0 mg/kg/injection, schedule: Q04DX003 (ip), vehicle: saline with Tween-80
# [5] = T/C endpoint: mean survival time, dose: 200.0 mg/kg/injection, schedule: Q04DX003 (ip), vehicle: saline with Tween-80
# [6] = T/C endpoint: mean survival time, dose: 400.0 mg/kg/injection, schedule: Q04DX003 (ip), vehicle: saline with Tween-80
# [7] = T/C endpoint: mean survival time, dose: 50.0 mg/kg/injection, schedule: Q01DX009 (ip), vehicle: saline with Tween-80
# [8] = T/C endpoint: mean survival time, dose: 25.0 mg/kg/injection, schedule: Q04DX002 (ip), vehicle: saline with Tween-80
structure (smiles),measurement,setting,value
O=S(=O)(O)c1ccc(/C2=c3\cc/c([n-]3)=C(\c3ccc(S(=O)(=O)O)cc3)c3ccc([n-]3)/C(c3ccc(S(=O)(=O)O)cc3)=c3/cc/c([n-]3)=C(\c3ccc(S(=O)(=O)O)cc3)c3ccc2[n-]3)cc1.[Co],survivor count,"T/C endpoint: mean survival time, dose: 400.0 mg/kg/injection, schedule: Q04DX002 (ip), vehicle: saline",0 of 3
CCOC(=O)Nc1nccs1,survivor count,[1],3 of 6
same,survivor count,"T/C endpoint: mean survival time, dose: 400.0 mg/kg/injection, schedule: Q04DX003 (ip), vehicle: Klucel (hydroxypropylcellulose) (HPC)",0 of 3
O=S(=O)(O)c1cc(O)ccc1O.O=S(=O)(O)c1cc(O)ccc1O.[NH-]C1CCCCC1[NH-].[Pt+2],T/C,"T/C endpoint: median survival time, dose: 6.25 mg/kg/injection, schedule: Q04DX003 (ip), vehicle: saline",130 % of control
same,T/C,"T/C endpoint: median survival time, dose: 12.5 mg/kg/injection, schedule: Q04DX003 (ip), vehicle: saline",133 % of control
same,T/C,"T/C endpoint: median survival time, dose: 25.0 mg/kg/injection, schedule: Q04DX003 (ip), vehicle: saline",127 % of control
CN=C1C=C/C(=N/N=c2/ccn(O)cc2C)C=C1C,survivor count,"T/C endpoint: mean survival time, dose: 200.0 mg/kg/injection, schedule: Q04DX002 (ip), vehicle: saline with Tween-80",3 of 3
same,survivor count,"T/C endpoint: mean survival time, dose: 400.0 mg/kg/injection, schedule: Q04DX002 (ip), vehicle: saline with Tween-80",0 of 3
C=CC(N)=O,survivor count,"T/C endpoint: mean survival time, dose: 100.0 mg/kg/injection, schedule: Q01DX009 (ip), vehicle: saline",0 of 6
CC(C)=NNS(=O)(=O)c1ccccc1,survivor count,"T/C endpoint: mean survival time, dose: 200.0 mg/kg/injection, schedule: Q01DX005 (ip), vehicle: Klucel (hydroxypropylcellulose) (HPC)",0 of 6
same,survivor count,"T/C endpoint: mean survival time, dose: 400.0 mg/kg/injection, schedule: Q01DX005 (ip), vehicle: Klucel (hydroxypropylcellulose) (HPC)",0 of 6
O=C1C=CC(=O)C=C1 (tested in a mixture with another compound),survivor count,"T/C endpoint: mean survival time, dose: 6.25 mg/kg/injection, schedule: Q04DX003 (ip), vehicle: saline with Tween-80",6 of 6
same,survivor count,"T/C endpoint: mean survival time, dose: 12.5 mg/kg/injection, schedule: Q04DX003 (ip), vehicle: saline with Tween-80",4 of 6
same,survivor count,[2],2 of 6
same,survivor count,[3],0 of 6
same,survivor count,[4],1 of 6
CO[C@]12[C@@H](COC(N)=O)C3=C(C(=O)C(C)=C(NCCCO)C3=O)N1C[C@@H]1[C@H]2N1C (some centres not stated),T/C,"T/C endpoint: mean survival time, dose: 300.0 mg/kg/injection, schedule: Q01DX001 (ip), vehicle: distilled water + Tween-80",133 % of control
COc1ccc(OC)c(C2N(C)CCCN2C)c1,survivor count,[4],2 of 6
same,survivor count,[5],0 of 6
same,survivor count,[6],0 of 6
CCOC(=O)C(C)CN(CC(C)C(=O)OCC)C(C)(C)C (configuration not stated),survivor count,"T/C endpoint: mean survival time, dose: 400.0 mg/kg/injection, schedule: Q01DX001 (ip), vehicle: saline with Tween-80",2 of 6
Clc1cc(Cl)c(CBr)cc1CBr,survivor count,"T/C endpoint: mean survival time, dose: 25.0 mg/kg/injection, schedule: Q01DX009 (ip), vehicle: saline with Tween-80",3 of 6
same,survivor count,[7],0 of 6
same,survivor count,[4],5 of 6
same,survivor count,[6],2 of 6
c1cc2c(c(CC3CO3)c1CC1CO1)OCCOCCOCCOCCO2 (configuration not stated),T/C,"T/C endpoint: median survival time, dose: 6.25 mg/kg/injection, schedule: Q01DX009 (ip), vehicle: saline + alcohol",132 % of control
same,T/C,"T/C endpoint: median survival time, dose: 50.0 mg/kg/injection, schedule: Q01DX009 (ip), vehicle: saline + alcohol",132 % of control
NC(CC(=O)CCl)C(=O)O (configuration not stated),T/C,"T/C endpoint: mean survival time, dose: 12.5 mg/kg/injection, schedule: Q04DX003 (ip), vehicle: saline, evaluated on day 5",133 % of control
same,T/C,"T/C endpoint: mean survival time, dose: 12.5 mg/kg/injection, schedule: Q04DX003 (ip), vehicle: saline, evaluated on day 30",133 % of control
same,T/C,"T/C endpoint: mean survival time, dose: 18.8 mg/kg/injection, schedule: Q04DX003 (ip), vehicle: saline",126 % of control
same,T/C,"T/C endpoint: mean survival time, dose: 25.0 mg/kg/injection, schedule: Q04DX003 (ip), vehicle: saline, evaluated on day 5",140 % of control
same,T/C,"T/C endpoint: mean survival time, dose: 25.0 mg/kg/injection, schedule: Q04DX003 (ip), vehicle: saline, evaluated on day 30",140 % of control
same,T/C,"T/C endpoint: mean survival time, dose: 50.0 mg/kg/injection, schedule: Q04DX003 (ip), vehicle: saline, evaluated on day 5",134 % of control
same,T/C,"T/C endpoint: mean survival time, dose: 50.0 mg/kg/injection, schedule: Q04DX003 (ip), vehicle: saline, evaluated on day 30",134 % of control
same,T/C,"T/C endpoint: mean survival time, dose: 75.0 mg/kg/injection, schedule: Q04DX003 (ip), vehicle: saline",129 % of control [4 of 6 alive]
same,survivor count,"T/C endpoint: mean survival time, dose: 150.0 mg/kg/injection, schedule: Q04DX003 (ip), vehicle: saline",0 of 6
same,T/C,"T/C endpoint: median survival time, dose: 7.5 mg/kg/injection, schedule: Q01DX009 (ip), vehicle: saline, evaluated on day 5",137 % of control
same,T/C,"T/C endpoint: median survival time, dose: 7.5 mg/kg/injection, schedule: Q01DX009 (ip), vehicle: saline, evaluated on day 30",133 % of control
same,T/C,"T/C endpoint: median survival time, dose: 15.0 mg/kg/injection, schedule: Q01DX009 (ip), vehicle: saline, evaluated on day 5",140 % of control
same,T/C,"T/C endpoint: median survival time, dose: 15.0 mg/kg/injection, schedule: Q01DX009 (ip), vehicle: saline, evaluated on day 30",133 % of control
same,T/C,"T/C endpoint: median survival time, dose: 30.0 mg/kg/injection, schedule: Q01DX009 (ip), vehicle: saline",147 % of control
same,survivor count,"T/C endpoint: median survival time, dose: 60.0 mg/kg/injection, schedule: Q01DX009 (ip), vehicle: saline",0 of 10
N#Cc1cn(C2OC(CO)C(O)C2O)c2ncn3ncnc3c12 (configuration not stated),survivor count,"T/C endpoint: mean survival time, dose: 200.0 mg/kg/injection, schedule: Q01DX005 (ip), vehicle: distilled water + Tween-80",4 of 6
same,survivor count,"T/C endpoint: mean survival time, dose: 400.0 mg/kg/injection, schedule: Q01DX005 (ip), vehicle: distilled water + Tween-80",0 of 6
COc1cc(/C=N\NC(C)=O)cc(OC)c1OC,survivor count,[6],3 of 6
CC(=O)C1=C(O)C2(O)C(=O)c3c(c(C)c4ccc(C)c(O)c4c3O)CC2C(N)C1=O (configuration not stated),survivor count,"T/C endpoint: mean survival time, dose: 120.0 mg/kg/injection, schedule: Q01DX009 (ip), vehicle: saline + alcohol",0 of 10 and 0 of 6
CCOC(=O)C(Br)(Br)C(=O)OCC,survivor count,[7],2 of 3
same,survivor count,"T/C endpoint: mean survival time, dose: 100.0 mg/kg/injection, schedule: Q01DX009 (ip), vehicle: saline with Tween-80",1 of 3
same,survivor count,[1],0 of 3
CCc1c(Cl)c(C)c(Cl)c(O)c1Cl,survivor count,[6],0 of 3
CC1CC(C)(C)CC(=O)O1 (configuration not stated),survivor count,"T/C endpoint: mean survival time, dose: 150.0 mg/kg/injection, schedule: Q01DX001 (ip), vehicle: saline",1 of 6
same,survivor count,"T/C endpoint: mean survival time, dose: 300.0 mg/kg/injection, schedule: Q01DX001 (ip), vehicle: saline",0 of 6
CCCCOC(=O)c1ccccc1C(=O)O.CCCCOC(=O)c1ccccc1C(=O)O.[Cu+2],T/C,[2],126 % of control [2 of 3 alive]
same,survivor count,[3],1 of 3
same,survivor count,[4],0 of 3
same,survivor count,[5],0 of 3
same,survivor count,[6],0 of 3
Cn1/c2cc/c1=C(\c1ccc(S(=O)(=O)O)cc1)c1ccc([n-]1)/C(c1ccc(S(=O)(=O)O)cc1)=c1/cc/c([nH]1)=C(\c1ccc(S(=O)(=O)O)cc1)c1ccc([n-]1)/C=2c1ccc(S(=O)(=O)O)cc1.O.O=S(=O)(O)C(F)(F)F.[Cu+2],survivor count,"T/C endpoint: median survival time, dose: 200.0 mg/kg/injection, schedule: Q01DX009 (ip), vehicle: saline",0 of 5
CC(=O)OC1CCC2(C)C(CCC3(C)C2CCC2C4C5OC(=O)C4(CCC5(C)C)CCC23C)C1(C)C (configuration not stated),survivor count,[8],3 of 3
CCCCCC#CC(=O)OC,survivor count,[6],0 of 6
[Cl][Pt+2][Cl].[NH-]CC([NH-])CN,survivor count,"T/C endpoint: mean survival time, dose: 25.0 mg/kg/injection, schedule: Q04DX003 (ip), vehicle: saline",3 of 6
CC1(OO)OOC(=O)C1(C)C (configuration not stated),survivor count,[8],2 of 3
same,survivor count,"T/C endpoint: mean survival time, dose: 50.0 mg/kg/injection, schedule: Q04DX002 (ip), vehicle: saline with Tween-80",0 of 3
same,survivor count,"T/C endpoint: mean survival time, dose: 100.0 mg/kg/injection, schedule: Q04DX002 (ip), vehicle: saline with Tween-80",0 of 3
CC(=O)OCc1cc(=O)n(C)c2c3c4c(cc12)c(C)cc(=O)n4CO3,T/C,"T/C endpoint: mean survival time, dose: 50.0 mg/kg/injection, schedule: Q01DX009 (ip), vehicle: Klucel (hydroxypropylcellulose) (HPC)",133 and 134 % of control
same,survivor count,"T/C endpoint: mean survival time, dose: 100.0 mg/kg/injection, schedule: Q01DX009 (ip), vehicle: Klucel (hydroxypropylcellulose) (HPC)",1 of 6 and 4 of 6
same,survivor count,"T/C endpoint: mean survival time, dose: 200.0 mg/kg/injection, schedule: Q01DX009 (ip), vehicle: Klucel (hydroxypropylcellulose) (HPC)",0 of 6 and 2 of 6

# Reference: PubChem BioAssay AID256 (DTP/NCI, 2004)
